No constants are given. Whether binding was seen depends on the method and setting. Binding calls can cover weak binding; strength is not graded here.

The record followed here is publication PMC4537050, “A long pentraxin-3-derived pentapeptide for the therapy of FGF8b-driven steroid hormone-regulated cancers” (Oncotarget, 2015).

The assay addresses T1, Ac-ARPCA-NH2, acetylated pentapeptide corresponding to PTX3(100-104).
T1 sequence (peptide, N-terminal acetyl; C-terminal amide): ARPCA
Put plainly: NMR titration; 2D 1H-13C HSQC; 190 μM ARPCA in 50 mM potassium phosphate pH 6.7 (90% H2O/10% D2O), 2.5 mM arginine, 10 mM NaCl; FGF8 added at 1:0, 1:0.5 and 1:1 ARPCA:FGF8 ratios; 298 K, 600 MHz; both purified.

Take “Recombinant FGF8b for NMR studies (ligand)”: the binding result is “binds”.
